# Values of other authors, collected in patent US10118955B2, “C-terminal fragments of glucagon-like peptide-1 (GLP-1)” (The General Hospital Corporation, priority 2008, dated 2018).
# Amino acid sequences for entries named in this document (tags omitted). Residues count along the entry.
# UniProt P40939, 37-763, species assumed: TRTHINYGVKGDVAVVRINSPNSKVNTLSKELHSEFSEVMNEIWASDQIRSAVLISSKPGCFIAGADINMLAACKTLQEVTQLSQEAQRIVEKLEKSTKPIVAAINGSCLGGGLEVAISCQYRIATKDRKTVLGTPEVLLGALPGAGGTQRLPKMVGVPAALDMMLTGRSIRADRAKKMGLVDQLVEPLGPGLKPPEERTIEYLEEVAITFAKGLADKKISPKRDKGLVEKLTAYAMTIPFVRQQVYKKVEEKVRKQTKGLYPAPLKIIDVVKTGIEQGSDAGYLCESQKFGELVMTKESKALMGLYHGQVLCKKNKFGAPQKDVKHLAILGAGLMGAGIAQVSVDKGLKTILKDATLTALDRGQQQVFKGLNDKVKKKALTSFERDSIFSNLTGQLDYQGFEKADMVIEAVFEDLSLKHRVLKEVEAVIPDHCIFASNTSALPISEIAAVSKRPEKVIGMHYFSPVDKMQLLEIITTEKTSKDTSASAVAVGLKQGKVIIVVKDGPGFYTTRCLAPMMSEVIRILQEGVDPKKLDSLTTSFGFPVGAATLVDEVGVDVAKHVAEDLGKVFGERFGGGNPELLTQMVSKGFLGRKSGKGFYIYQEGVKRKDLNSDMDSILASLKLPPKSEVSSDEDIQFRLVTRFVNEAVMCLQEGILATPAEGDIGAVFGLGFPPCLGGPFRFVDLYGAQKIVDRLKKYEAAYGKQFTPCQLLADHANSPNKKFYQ
# For at least one compound, name, drawing or mass did not settle the structure.
# Biological target: alpha subunit of the trifunctional protein (HADHA) (Homo sapiens, UniProt P40939)
# Details: Hashimoto et al. 1996; cited from earlier work
smiles,measurement,value
CSCCC(NC(=O)C(Cc1c[nH]c2ccccc12)NC(=O)CNC(=O)C(Cc1ccc(O)cc1)NC(=O)C(C)NC(=O)C(CCC(=O)O)NC(=O)C(CCC(=O)O)NC(=O)C(CCC(=O)O)NC(=O)[C@H](CCC(=O)O)NC(=O)[C@H](CCC(=O)O)NC(=O)[C@H](CC(C)C)NC(=O)[C@H](Cc1c[nH]c2ccccc12)NC(=O)[C@@H]1CCCN1C(=O)CNC(=O)[C@@H](N)CCC(=O)O)C(=O)NC(CC(=O)O)C(=O)NC(Cc1ccccc1)C(N)=O (stereo in doubt) [gastrin],interaction with HADHA involved in beta oxidation,inhibit
